According to PubChem BioAssay AID540256 (National Center for Advancing Translational Sciences (NCATS), 2011):
In all, about 300,000 compounds went through this assay and about 3,700 (1.2%) were called active. Where a call stands in place of a potency, no number is given. Inconclusive means that the source gave no clear call. Such entries were picked first, then a sample of the others. Calls come from the whole dose curve; tested in HEK293 cells. A potency beside an inconclusive call is a rough fit, not a confirmed value.

Assay: qHTS for Inhibitors of binding or entry into cells for Lassa Virus; note: nearly all actives have a fitted effect of over 50% in size
Conditions: Lassa virus pseudotype entry inhibition, cell reporter; series mostly up to 37.9 µM
Potency is the fitted concentration of half-maximal effect.

SMILES	Potency
Cc1ccc2c(c1)N(C(=O)N1CCC(C(=O)NC3CCCCCC3)CC1)CC(C)O2 (configuration not stated)	inactive
CC1=C2C3OC(=O)C(C)C3CCC2(C)C=CC1=NO (configuration not stated)	inactive
COc1cccc(N(C(=O)c2cccs2)c2nc3ccccc3s2)c1	inconclusive: 3.16 µM [activator, partial curve, poor fit]
COc1ccc(O)c(/C=N/NC(=O)CN2CCS(=O)(=O)CC2)c1	inactive
CCOc1ccc(-n2c(SCC(=O)Nc3ccc(F)cc3)nc3c([nH]c4ccccc43)c2=O)cc1	inactive
Oc1ccccc1CNc1ccc(Br)cn1	inconclusive: 3.16 µM [activator, single point]
COC(=O)C(CC(=O)c1ccc(Br)cc1)n1cccn1 (configuration not stated)	inactive
CC(=O)c1cccc(NC(=O)c2ccc(-n3c(C)nnc3C)cc2)c1	inactive
CCOC(=O)Nc1ccc2c(c1)N(C(=O)CN(CC)CC)c1ccccc1CC2	inactive
CC(C)(C)NC(=S)NCCc1ccccc1	inconclusive: 3.55 µM [activator, single point]
COc1ccccc1N1CCN(C(=O)COc2cccc3ccccc23)CC1	inactive
CCC1=C(c2ccc(C)cc2)S(=O)(=O)N=C1N1CCC(C(=O)NCCCN2CCCCC2)CC1	inconclusive: 15.8 µM [activator, single point]
CC(CCc1ccccc1)NC(=O)C(=O)NCCc1ccccc1 (configuration not stated)	inconclusive: 35.5 µM [inhibitor, single point]
Cc1ccccc1OCC(=O)Nc1ccc2[nH]ncc2c1	inconclusive: 7.08 µM [inhibitor, full curve]
CCC(Sc1nc2nccnc2c(=O)n1Cc1ccc(OC)cc1)C(=O)NC1CCCCC1 (configuration not stated)	inactive
O=C(Nc1ccccn1)c1ccc(S(=O)(=O)c2ccc(Cl)cc2)cc1	inconclusive: 0.316 µM [inhibitor, full curve, poor fit]
Cc1ccc(S(=O)(=O)N2CCN=C2SCc2c(F)cccc2Cl)cc1	inconclusive: 0.708 µM [inhibitor, full curve, poor fit]
c1ccc(Cn2ccc(-c3cnc(-c4ccccc4)s3)n2)cc1	active: 11.2 µM
CC(=O)Nc1ccc(NC(=S)Nc2ccc(Br)cc2)cc1	inactive
CC(=O)c1c(N2CCOCC2)nc2ccc(Br)cc2c1-c1ccccc1	inconclusive: 35.5 µM [inhibitor, single point]
CCCC(=O)C1=C(O)C(C(=O)OC)C(C)(C)CC1=Nc1ccccc1 (configuration not stated)	inconclusive: 35.5 µM [inhibitor, single point]
Cn1c(=O)[nH]c(=O)c2c1nc(CN1CCN(c3cccc(Cl)c3)CC1)n2CCN1CCOCC1	inactive

Exported as labelled records: 2 of the compounds above.
Oc1ccccc1CNc1ccc(Br)cn1
  Potency: inconclusive: 3.16 µM [activator, single point]
COC(=O)C(CC(=O)c1ccc(Br)cc1)n1cccn1 (configuration not stated)
  Potency: inactive
